Experimental data reported in article doi:10.1101/2023.12.26.573020.
Results are given in words; binding and its absence hold for the method and conditions named. Binding calls can cover weak binding; strength is not graded here.

Target: TaNF-YC6-B in the bait vector pGBKT7 (yeast two-hybrid) (hexaploid wheat (T. aestivum))
Assay: two-hybrid

TaNF-YA3-D in the prey vector pGADT7 (yeast two-hybrid) (from UniProt A0A9R1KIN5)
binding: binds
